Assay results as given in PMC11549326.
These are yes or no findings as the source states them, for the method shown. In cells and extracts the contact can be indirect. Some results given as binding are weak or reduced against the parent protein; the word gives no strength.

Protein sequences, listed by entry. Tags and fused reporters are not part of them.
UniProt Q61768: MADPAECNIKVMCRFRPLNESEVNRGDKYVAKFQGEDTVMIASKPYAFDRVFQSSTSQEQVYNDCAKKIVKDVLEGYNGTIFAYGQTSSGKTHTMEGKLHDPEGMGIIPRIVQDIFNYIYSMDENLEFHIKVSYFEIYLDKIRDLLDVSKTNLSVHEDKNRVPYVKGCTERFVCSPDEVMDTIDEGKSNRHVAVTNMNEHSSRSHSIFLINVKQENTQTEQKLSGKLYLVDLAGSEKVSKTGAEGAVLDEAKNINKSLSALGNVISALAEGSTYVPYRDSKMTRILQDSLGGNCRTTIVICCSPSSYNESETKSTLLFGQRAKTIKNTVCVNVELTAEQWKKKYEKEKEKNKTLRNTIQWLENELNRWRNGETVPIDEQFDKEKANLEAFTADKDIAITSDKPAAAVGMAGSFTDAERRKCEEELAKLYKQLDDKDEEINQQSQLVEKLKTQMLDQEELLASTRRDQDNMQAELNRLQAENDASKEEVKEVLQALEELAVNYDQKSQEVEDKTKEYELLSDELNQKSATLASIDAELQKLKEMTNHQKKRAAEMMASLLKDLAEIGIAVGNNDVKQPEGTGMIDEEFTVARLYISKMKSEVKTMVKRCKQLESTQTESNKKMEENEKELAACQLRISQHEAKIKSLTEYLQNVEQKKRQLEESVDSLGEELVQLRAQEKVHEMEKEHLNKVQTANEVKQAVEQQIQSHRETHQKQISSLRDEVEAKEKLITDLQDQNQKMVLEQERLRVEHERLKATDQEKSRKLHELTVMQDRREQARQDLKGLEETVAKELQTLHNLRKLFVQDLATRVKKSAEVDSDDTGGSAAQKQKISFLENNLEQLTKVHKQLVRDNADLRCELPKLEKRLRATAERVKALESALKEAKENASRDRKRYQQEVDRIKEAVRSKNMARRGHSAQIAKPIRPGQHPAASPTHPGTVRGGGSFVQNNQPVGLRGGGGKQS

Tests used:
[1] = target: T1, KATP channel subunit Kir6.2 (mouse (endogenous in MIN6)) (UniProt Q61743); test: co-IP; vesicle IP of MIN6 postnuclear fractions (10 mM HEPES pH 7.4, 150 mM NaCl, 0.1% Triton X-100) on protein A beads with anti-CaV1.2, anti-Kir6.2 or anti-STIP1 antibody or normal rabbit IgG, immunoblotting; cells transduced with scrambled-control or KIF5B-knockdown miRNA for 6 days and treated with 10 uM MG-132 for 6 h; also non-transduced against KIF5B- and Hsc70-overexpressing cells
T1 sequence: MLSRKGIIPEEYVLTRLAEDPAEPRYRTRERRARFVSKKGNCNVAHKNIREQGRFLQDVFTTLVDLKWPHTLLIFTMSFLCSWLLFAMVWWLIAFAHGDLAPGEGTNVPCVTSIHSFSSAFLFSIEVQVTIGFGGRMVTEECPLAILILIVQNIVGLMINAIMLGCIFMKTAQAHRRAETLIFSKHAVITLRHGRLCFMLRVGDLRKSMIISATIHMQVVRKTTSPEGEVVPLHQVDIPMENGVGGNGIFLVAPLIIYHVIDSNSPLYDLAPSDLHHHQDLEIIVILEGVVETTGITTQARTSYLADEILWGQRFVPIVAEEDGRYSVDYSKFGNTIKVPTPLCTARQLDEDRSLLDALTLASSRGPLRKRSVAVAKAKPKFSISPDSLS

[2] = target: voltage-gated calcium channel CaV1.2 (mouse (endogenous in MIN6 and in mouse primary beta cells)) (UniProt Q01815); test: as above

| Substance | binding [1] | binding [2] |
| --- | --- | --- |
| KIF5B (from UniProt Q61768 1-963) | binds | – |
| STIP1 (Hop) protein (from UniProt Q60864 1-543) | binds weakly | binds |
| voltage-gated calcium channel CaV1.2 (from UniProt Q01815 1-2139) | binds weakly | – |
